In the supplement of paper PMC12067093, “Discovery and optimisation of a covalent ligand for TRIM25 and its application to targeted protein ubiquitination” (Chemical Science, 2025):
Some of the results follow.

The chains behind the UniProt entries cited, without tags or fusion partners. Where a name states a change or a piece, a line headed by the entry shows the natural chain unless it says otherwise.
UniProt Q9Y3C0: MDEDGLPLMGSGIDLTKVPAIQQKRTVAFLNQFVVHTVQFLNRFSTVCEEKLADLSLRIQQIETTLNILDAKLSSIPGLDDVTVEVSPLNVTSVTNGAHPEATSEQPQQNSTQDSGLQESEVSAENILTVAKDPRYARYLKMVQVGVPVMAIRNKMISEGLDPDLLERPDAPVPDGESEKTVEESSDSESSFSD
UniProt Q8IV63: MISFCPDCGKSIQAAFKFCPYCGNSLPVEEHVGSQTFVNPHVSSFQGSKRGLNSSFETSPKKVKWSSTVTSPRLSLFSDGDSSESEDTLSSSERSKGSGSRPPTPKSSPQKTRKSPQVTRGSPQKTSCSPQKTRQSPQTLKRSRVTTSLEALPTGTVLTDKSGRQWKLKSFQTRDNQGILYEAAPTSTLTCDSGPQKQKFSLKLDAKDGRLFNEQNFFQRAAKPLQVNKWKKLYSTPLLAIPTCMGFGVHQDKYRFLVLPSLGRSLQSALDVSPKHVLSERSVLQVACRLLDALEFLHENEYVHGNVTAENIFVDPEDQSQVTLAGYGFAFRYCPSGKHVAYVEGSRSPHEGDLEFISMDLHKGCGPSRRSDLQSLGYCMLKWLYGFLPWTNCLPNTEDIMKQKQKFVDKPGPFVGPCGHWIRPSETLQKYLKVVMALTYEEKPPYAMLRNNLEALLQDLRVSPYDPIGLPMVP
UniProt O00507: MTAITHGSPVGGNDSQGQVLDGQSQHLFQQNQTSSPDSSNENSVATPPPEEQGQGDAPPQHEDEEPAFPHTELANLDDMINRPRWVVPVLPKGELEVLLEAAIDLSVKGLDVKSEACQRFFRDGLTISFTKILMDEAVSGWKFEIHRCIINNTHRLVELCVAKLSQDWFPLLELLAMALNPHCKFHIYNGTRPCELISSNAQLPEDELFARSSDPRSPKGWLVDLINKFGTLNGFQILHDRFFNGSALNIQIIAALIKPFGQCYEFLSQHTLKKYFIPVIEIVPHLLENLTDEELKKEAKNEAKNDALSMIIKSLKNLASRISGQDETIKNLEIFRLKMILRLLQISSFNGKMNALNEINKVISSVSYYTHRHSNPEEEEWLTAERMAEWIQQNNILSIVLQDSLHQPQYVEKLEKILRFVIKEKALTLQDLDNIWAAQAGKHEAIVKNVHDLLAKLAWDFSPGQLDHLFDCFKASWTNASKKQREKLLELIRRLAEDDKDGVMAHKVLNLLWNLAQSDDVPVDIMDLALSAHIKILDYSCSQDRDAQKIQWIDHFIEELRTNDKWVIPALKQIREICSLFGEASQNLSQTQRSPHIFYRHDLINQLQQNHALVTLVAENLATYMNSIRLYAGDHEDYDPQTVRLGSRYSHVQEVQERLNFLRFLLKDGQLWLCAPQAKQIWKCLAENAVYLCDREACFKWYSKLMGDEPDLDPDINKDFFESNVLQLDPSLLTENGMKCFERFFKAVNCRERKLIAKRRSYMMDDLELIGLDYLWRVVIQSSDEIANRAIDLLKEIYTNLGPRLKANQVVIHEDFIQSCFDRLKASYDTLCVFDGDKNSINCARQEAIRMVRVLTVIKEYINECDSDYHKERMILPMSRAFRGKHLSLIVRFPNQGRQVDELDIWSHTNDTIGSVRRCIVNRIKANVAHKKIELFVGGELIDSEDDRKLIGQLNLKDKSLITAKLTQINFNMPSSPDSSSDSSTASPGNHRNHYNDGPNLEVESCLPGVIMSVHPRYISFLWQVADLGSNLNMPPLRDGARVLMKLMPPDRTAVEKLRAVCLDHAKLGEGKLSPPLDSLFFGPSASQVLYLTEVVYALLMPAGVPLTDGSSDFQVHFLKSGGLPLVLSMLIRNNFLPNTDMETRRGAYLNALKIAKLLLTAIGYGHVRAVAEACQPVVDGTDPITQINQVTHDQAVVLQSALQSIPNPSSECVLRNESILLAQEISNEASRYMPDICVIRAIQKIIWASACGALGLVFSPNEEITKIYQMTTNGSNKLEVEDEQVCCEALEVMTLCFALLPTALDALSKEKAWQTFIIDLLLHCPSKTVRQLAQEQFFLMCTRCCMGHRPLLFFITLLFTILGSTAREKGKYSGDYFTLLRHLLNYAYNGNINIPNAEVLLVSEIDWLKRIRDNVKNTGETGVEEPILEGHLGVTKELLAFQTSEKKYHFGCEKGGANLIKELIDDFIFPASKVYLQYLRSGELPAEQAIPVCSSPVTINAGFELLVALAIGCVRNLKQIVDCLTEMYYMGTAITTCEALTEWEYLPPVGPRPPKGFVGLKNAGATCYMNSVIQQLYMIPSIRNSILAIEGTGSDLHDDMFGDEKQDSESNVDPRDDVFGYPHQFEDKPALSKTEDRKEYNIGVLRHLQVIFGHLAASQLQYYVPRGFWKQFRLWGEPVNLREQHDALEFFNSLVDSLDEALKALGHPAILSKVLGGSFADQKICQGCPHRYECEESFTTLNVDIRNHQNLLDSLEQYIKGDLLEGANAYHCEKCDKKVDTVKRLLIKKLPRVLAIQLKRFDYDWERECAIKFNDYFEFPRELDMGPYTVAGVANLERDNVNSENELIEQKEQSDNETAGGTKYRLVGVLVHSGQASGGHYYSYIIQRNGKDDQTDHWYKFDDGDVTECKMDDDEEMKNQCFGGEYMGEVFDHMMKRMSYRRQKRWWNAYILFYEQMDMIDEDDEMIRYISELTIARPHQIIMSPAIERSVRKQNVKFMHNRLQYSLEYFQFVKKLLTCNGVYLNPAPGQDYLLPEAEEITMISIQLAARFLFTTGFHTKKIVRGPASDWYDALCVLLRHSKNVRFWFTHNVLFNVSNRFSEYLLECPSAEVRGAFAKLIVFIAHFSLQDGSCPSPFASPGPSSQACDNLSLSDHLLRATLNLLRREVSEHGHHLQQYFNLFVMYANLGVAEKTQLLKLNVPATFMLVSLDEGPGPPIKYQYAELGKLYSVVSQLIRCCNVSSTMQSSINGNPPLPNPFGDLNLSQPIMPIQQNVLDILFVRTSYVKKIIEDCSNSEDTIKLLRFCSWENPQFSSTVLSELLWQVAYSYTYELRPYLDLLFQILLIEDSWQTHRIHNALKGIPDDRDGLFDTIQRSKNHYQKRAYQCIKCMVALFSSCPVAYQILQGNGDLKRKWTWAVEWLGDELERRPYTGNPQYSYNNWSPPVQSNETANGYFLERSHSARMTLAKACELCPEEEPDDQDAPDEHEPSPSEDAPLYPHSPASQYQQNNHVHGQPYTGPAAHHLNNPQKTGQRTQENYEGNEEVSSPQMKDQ
UniProt Q93008, whole entry, looked up: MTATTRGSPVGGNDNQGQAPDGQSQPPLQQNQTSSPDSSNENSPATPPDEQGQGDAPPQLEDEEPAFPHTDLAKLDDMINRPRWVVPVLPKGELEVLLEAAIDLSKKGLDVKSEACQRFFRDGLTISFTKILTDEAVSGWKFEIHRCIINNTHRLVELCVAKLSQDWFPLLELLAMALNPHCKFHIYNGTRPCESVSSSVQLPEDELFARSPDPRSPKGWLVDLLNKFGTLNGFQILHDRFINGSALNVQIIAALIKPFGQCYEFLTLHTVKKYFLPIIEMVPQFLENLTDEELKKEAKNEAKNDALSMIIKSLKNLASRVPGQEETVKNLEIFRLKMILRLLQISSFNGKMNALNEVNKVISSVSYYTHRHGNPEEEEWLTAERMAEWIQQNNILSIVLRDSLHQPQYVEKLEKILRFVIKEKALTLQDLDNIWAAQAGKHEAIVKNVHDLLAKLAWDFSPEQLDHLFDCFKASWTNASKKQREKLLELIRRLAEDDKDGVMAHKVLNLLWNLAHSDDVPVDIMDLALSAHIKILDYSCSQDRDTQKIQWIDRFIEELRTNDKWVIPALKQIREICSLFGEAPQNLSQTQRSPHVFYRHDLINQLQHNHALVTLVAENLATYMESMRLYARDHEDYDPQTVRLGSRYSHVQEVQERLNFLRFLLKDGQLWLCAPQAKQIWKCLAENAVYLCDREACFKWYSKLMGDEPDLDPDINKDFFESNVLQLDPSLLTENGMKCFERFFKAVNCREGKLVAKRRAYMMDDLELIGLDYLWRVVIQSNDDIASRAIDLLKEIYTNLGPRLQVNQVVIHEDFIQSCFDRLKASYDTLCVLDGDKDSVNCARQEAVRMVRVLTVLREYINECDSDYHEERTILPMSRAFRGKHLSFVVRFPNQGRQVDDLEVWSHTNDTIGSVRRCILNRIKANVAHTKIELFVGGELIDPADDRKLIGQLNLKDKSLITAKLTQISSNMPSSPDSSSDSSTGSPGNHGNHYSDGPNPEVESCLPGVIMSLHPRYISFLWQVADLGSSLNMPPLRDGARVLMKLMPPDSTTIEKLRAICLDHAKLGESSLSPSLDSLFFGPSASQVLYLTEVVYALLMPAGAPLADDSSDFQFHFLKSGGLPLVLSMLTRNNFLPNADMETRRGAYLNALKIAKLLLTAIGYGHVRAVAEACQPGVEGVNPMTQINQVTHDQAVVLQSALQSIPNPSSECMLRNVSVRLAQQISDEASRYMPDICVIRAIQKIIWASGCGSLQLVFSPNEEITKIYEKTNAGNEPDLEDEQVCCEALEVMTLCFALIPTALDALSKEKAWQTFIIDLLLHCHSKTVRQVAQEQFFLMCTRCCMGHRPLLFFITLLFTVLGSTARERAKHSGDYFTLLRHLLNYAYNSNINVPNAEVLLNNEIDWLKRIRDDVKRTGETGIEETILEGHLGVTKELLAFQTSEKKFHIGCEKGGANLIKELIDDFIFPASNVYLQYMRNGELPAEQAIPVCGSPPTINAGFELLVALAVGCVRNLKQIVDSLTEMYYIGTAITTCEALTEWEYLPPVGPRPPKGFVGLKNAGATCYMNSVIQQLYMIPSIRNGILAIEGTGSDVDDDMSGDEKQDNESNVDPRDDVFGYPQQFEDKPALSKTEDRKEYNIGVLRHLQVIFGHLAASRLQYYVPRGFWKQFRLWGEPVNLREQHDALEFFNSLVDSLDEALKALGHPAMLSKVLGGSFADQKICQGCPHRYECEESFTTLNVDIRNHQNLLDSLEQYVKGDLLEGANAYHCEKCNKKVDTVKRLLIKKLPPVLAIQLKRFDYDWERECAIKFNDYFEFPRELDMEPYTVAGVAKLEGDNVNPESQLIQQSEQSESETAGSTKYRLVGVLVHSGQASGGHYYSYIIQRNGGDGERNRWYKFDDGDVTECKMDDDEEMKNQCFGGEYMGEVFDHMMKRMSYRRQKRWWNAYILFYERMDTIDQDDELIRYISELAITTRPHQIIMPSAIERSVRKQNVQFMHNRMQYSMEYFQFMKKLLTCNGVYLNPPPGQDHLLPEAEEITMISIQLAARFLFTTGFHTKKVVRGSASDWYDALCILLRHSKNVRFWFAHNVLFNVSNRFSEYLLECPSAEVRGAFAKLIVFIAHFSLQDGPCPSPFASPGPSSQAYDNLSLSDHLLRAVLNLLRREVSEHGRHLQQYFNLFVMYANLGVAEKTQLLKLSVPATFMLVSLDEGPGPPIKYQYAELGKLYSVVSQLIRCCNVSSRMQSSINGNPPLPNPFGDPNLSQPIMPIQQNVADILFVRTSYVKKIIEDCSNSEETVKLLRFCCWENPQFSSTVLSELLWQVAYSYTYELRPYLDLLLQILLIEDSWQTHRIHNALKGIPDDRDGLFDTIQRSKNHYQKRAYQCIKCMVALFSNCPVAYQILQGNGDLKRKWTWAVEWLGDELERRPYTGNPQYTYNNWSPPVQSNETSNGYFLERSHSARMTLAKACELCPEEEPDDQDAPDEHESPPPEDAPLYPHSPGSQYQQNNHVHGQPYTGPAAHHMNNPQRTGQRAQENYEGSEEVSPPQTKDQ
UniProt Q96AX1: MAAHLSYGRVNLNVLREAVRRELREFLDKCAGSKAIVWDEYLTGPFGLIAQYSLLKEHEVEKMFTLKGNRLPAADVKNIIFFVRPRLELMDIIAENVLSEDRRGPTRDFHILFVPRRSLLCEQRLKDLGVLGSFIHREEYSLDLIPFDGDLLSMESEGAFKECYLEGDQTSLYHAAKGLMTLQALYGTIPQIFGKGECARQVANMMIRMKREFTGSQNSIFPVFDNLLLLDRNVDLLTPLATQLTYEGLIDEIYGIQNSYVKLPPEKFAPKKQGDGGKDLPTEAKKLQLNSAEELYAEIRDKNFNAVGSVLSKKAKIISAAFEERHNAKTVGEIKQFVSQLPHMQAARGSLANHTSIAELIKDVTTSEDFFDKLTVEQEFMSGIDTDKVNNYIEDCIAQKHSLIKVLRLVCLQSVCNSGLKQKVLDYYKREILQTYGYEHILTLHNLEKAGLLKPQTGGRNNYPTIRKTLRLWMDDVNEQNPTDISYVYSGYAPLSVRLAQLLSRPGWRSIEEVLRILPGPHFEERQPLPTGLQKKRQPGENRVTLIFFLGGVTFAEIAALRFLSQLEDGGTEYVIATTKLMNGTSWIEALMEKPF
UniProt Q9UK41: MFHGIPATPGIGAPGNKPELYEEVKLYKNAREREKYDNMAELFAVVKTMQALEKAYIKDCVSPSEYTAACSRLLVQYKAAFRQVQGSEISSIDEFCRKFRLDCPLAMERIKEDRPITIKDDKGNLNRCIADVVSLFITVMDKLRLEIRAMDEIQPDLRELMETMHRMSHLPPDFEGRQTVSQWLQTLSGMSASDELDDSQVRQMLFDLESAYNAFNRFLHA

Compound: Cc1cc(ccc1-c1ccccc1)C(=O)N1CCCN(CC1)C(=O)CCl [compound 10]
Assay: probe-labelled cysteine peptide fold change vs DMSO (competition) (log2 fold change); higher = less target engagement (more negative = stronger competition)
Settings: 10 µM; THP-1; incubation time: 4 h
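Also: competitive profiling in live THP-1 cells: cysteine peptides tagged with an iodoacetamide desthiobiotin (IA-DTB) probe, intensity after compound treatment relative to DMSO-treated cells.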

Going from “WASHC3_Q9Y3C0_48_FSTVCEEK (UniProt Q9Y3C0)” to “VRK3_Q8IV63_128_TSCSPQK (UniProt Q8IV63)”, the “probe-labelled cysteine peptide fold change” value falls from 0.225 to -0.0845.

Going from “USP9Y_O00507_1729_ICQGCPHRYECEESFTTLNVDIR (UniProt O00507)” to “USP9X_Q93008_540_ILDYSCSQDRDTQK (UniProt Q93008)”, the “probe-labelled cysteine peptide fold change” value falls from -0.0335 to -0.129.

Compared with “VAV3_Q9UKW4_187_CPENDIR (UniProt Q9UKW4)”, “VAV3_Q9UKW4_44_DGVLLCQLLNNLR (UniProt Q9UKW4)” is higher in “probe-labelled cysteine peptide fold change” value: -0.136 for the first, 0.467 for the second.

Compared with “USP9X_Q93008_2293_KIIEDCSNSEETVK (UniProt Q93008)”, “VCPIP1_Q96JH7_344_DGHLNKPICIAWSSSGR (UniProt Q96JH7)” is lower in “probe-labelled cysteine peptide fold change” value: 0.207 for the first, -0.152 for the second.

First: VPS33A_Q96AX1_121_SLLCEQR (UniProt Q96AX1)
Second: USP9X_Q93008_471_LAWDFSPEQLDHLFDCFK (UniProt Q93008)
The “probe-labelled cysteine peptide fold change” value of the first is lower: -0.13 for the first, 0.316 for the second.

Going from “VCPIP1_Q96JH7_160_DMNQGELFDCALLGDR (UniProt Q96JH7)” to “UTP20_O75691_295_EHFGTFFECLQESLLDLHTK (UniProt O75691)”, the “probe-labelled cysteine peptide fold change” value rises from -0.0628 to 0.0442.

Going from “VEZF1_Q14119_327_TCMSEETSNQK (UniProt Q14119)” to “VCP_P55072_174_VVETDPSPYCIVAPDTVIHCEGEPIKR (UniProt P55072)”, the “probe-labelled cysteine peptide fold change” value falls from -0.0764 to -0.154.

First: VPS39_Q96JC1_681_LICDFPFDGLLEER (UniProt Q96JC1)
Second: VAT1_Q99536_50_CLVLTGFGGYDK (UniProt Q99536)
The “probe-labelled cysteine peptide fold change” value of the first is higher: 0.24 for the first, 0.175 for the second.

First: UTP20_O75691_616_LALCGCK (UniProt O75691)
Second: UTP6_Q9NYH9_524_EQESCNMANIR (UniProt Q9NYH9)
The “probe-labelled cysteine peptide fold change” value of the first is lower: -0.00945 for the first, 0.129 for the second.

In the case of “VLDLR_P98155_367_ECHINECLVNNGGCSHICK (UniProt P98155)”, the “probe-labelled cysteine peptide fold change” value is reported as 0.0844.

Same assay, conditions: 50 µM; THP-1; incubation time: 4 h

Going from “VIPAS39_Q9H9C1_446_CHDVVIDTYR (UniProt Q9H9C1)” to “VCPIP1_Q96JH7_469+472_CLLCGALSELHVPPEWLAPGGK (UniProt Q96JH7)”, the “probe-labelled cysteine peptide fold change” value rises from -0.0289 to 0.233.

Compared with “VPS11_Q9H270_568_GLCTDYRPSLEGR (UniProt Q9H270)”, “UTRN_P46939_1218_VPSGGQELTSELNVVLENYQLLCNR (UniProt P46939)” is higher in “probe-labelled cysteine peptide fold change” value: -0.168 for the first, 0.279 for the second.

First: VPS13A_Q96RL7_582_CIIEAEPLEIIYDAR (UniProt Q96RL7)
Second: UXS1_Q8NBZ7_230_ACYDEGK (UniProt Q8NBZ7)
The “probe-labelled cysteine peptide fold change” value of the first is higher: 0.463 for the first, 0.0502 for the second.

First: VRK1_Q99986_220_RCHDGTIEFTSIDAHNGVAPSR (UniProt Q99986)
Second: VPS28_Q9UK41_96_QVQGSEISSIDEFCR (UniProt Q9UK41)
The “probe-labelled cysteine peptide fold change” value of the first is higher: 0.0818 for the first, -0.0686 for the second.

Going from “VPS45_Q9NRW7_359_NLLEVSEVEQELACQNDHSSALQNIKR (UniProt Q9NRW7)” to “VAV3_Q9UKW4_7_QCAQWLIHCK (UniProt Q9UKW4)”, the “probe-labelled cysteine peptide fold change” value rises from -0.434 to 0.261.

Going from “VARS2_Q5ST30_549_QLWWGHQIPAYLVVEDHAQGEEDCWVVGR (UniProt Q5ST30)” to “VPS28_Q9UK41_103_FRLDCPLAMER (UniProt Q9UK41)”, the “probe-labelled cysteine peptide fold change” value falls from 0.141 to -0.0784.

Going from “VPS41_P49754_332_GFQENECR (UniProt P49754)” to “UTRN_P46939_1627_LCVLNAGWSR (UniProt P46939)”, the “probe-labelled cysteine peptide fold change” value falls from 0.157 to -0.243.

First: WASHC5_Q12768_21_IVSCGNAIIAELLR (UniProt Q12768)
Second: VIRMA_Q69YN4_557_CHFYEVLSEIKR (UniProt Q69YN4)
The “probe-labelled cysteine peptide fold change” value of the first is higher: 0.234 for the first, 0.205 for the second.

Going from “WASHC3_Q9Y3C0_48_FSTVCEEK (UniProt Q9Y3C0)” to “VRK3_Q8IV63_128_TSCSPQK (UniProt Q8IV63)”, the “probe-labelled cysteine peptide fold change” value falls from 0.193 to -0.292.

Going from “USP9Y_O00507_1729_ICQGCPHRYECEESFTTLNVDIR (UniProt O00507)” to “USP9X_Q93008_540_ILDYSCSQDRDTQK (UniProt Q93008)”, the “probe-labelled cysteine peptide fold change” value rises from -0.101 to 0.0413.

First: VAV3_Q9UKW4_187_CPENDIR (UniProt Q9UKW4)
Second: VAV3_Q9UKW4_44_DGVLLCQLLNNLR (UniProt Q9UKW4)
The “probe-labelled cysteine peptide fold change” value of the first is lower: -0.136 for the first, 0.381 for the second.

Compared with “USP9X_Q93008_2293_KIIEDCSNSEETVK (UniProt Q93008)”, “VCPIP1_Q96JH7_344_DGHLNKPICIAWSSSGR (UniProt Q96JH7)” is lower in “probe-labelled cysteine peptide fold change” value: -0.0195 for the first, -0.163 for the second.

First: VPS33A_Q96AX1_121_SLLCEQR (UniProt Q96AX1)
Second: USP9X_Q93008_471_LAWDFSPEQLDHLFDCFK (UniProt Q93008)
The “probe-labelled cysteine peptide fold change” value of the first is lower: 0.103 for the first, 0.635 for the second.
